The list shows a part of the results. Further columns of the screen follow, without active or inactive calls. The list favours compounds with an active or inconclusive main result. Potencies come from curve fits of mixed quality, noted in brackets.
Assay: qHTS Assay for Lipid Storage Modulators in Drosophila S3 Cells;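 for cell number change: cells counted by Cell Tracker Red CMTPX staining in the red channel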
Details: BODIPY lipid droplet fluorescence, 18-24 h; for cell number change: measured here: cell count max response, cells fed with added oleic acid
Method in brief: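 Drosophila S3 cells got compounds at several concentrations plus oleic acid (400 uM solution). Laser-scanning cytometry with 488 nm excitation read lipid droplets at 500-530 nm and cells at 575-640 nm. Percent activity was relative to 20 uM Triacsin C.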

[1] = measured here: cell number channel AC50, cells fed with added oleic acid
[2] = measured here: lipid fluorescence (Fed channel) AC50, cells fed with added oleic acid

| Structure (SMILES) | AC50 [1] | AC50 [2] | cell number change [%] |
| --- | --- | --- | --- |
| C=CCn1c2ccccc2c2nnc(SCCCn3c(=O)[nH]c4ccccc43)nc21 | 4.61 nM [rising, full curve, poor fit] | 130 nM [rising, full curve, poor fit] |  |
| COc1cc(OC)c(C2=NOC(C(=O)N3CCN(C(=O)c4ccco4)CC3)C2)cc1Cl (stereo not given) |  | 58 nM [rising, full curve] | 6.61 |
| CCOc1ccccc1NC(=O)Nc1ccc(CC#N)cc1 |  | 411 nM [rising, full curve, poor fit] | 15.8 |
| N#Cc1ccc(NC(=O)CSc2cn[nH]n2)cc1 |  |  | -5.13 |
| COc1ccc(C)cc1S(=O)(=O)Nc1cccc(-c2cn3cccnc3n2)c1 |  |  | -3.42 |
| O=C(NCCc1ccccc1)C1CCCN(c2ncnc3c2nc2n3CCCCC2)C1 (stereo not given) |  |  | -11.1 |
| O=C(/C=C/c1ccco1)NCCCN1CCN(CCCNC(=O)/C=C/c2ccco2)CC1 |  | 116 nM [rising, full curve, poor fit] | -7.41 |
| CN(C)C(CNC(=O)Cc1cccc(C(F)(F)F)c1)c1ccccc1 (stereo not given) |  | 6510 nM [rising, partial curve] | -8.7 |
| CCCCNC(=S)NNc1c(Cl)cc(Cl)cc1Cl | 2310 nM [rising, partial curve] | 2310 nM [rising, partial curve] | 25 |
| O=C(NC1CCCC1)C(c1cc2c(cc1[N+](=O)[O-])OCO2)N1CCCC1 (stereo not given) | 3660 nM [rising, single point] |  |  |
| COc1cccc(CC(=O)OC(C)C(=O)NCc2ccc3c(c2)OCO3)c1 (stereo not given) |  | 1300 nM [rising, partial curve] |  |
| O=C(CCc1nc2ccccc2c(=O)[nH]1)N1CCN(S(=O)(=O)c2ccc(F)cc2)CC1 |  |  | -13 |
| CC(C)C(=O)Nc1nnc(NC(=S)Nc2ccccc2)s1 |  |  | 16.2 |
| C=CCN(c1ccc(C(=O)Nc2cccc(C)c2)cc1)S(C)(=O)=O | 2060 nM [rising, partial curve, poor fit] | 1460 nM [rising, partial curve] | 7.91 |
| O=C(c1cc(Sc2cccc(Cl)c2)nc2ccccc12)N1CCN(c2ccccn2)CC1 |  | 5800 nM [rising, single point] | -16 |
| COC(=O)c1cc(-c2ccc(NC(C)=O)cc2)nc2ccccc12 |  | 1640 nM [rising, partial curve, poor fit] | 6.37 |
| O=C(O/N=C(\c1ccccc1)c1ccncc1)c1ccccc1Cl | 7310 nM [rising, partial curve, poor fit] |  | 39.5 |
| CCOc1ccccc1N1CC(C(=O)N2CCc3ccccc32)CC1=O (stereo not given) |  |  | 10.9 |
| CCCCCCC(=O)N(O)C1CC(=O)N(c2ccccc2)C1=O (stereo not given) | 18400 nM [falling, partial curve] | 517 nM [falling, full curve, poor fit] | -93.5 |
| CCCC(=O)NC(=S)NNC(=O)c1ccc([N+](=O)[O-])cc1 |  |  | -3.96 |
| CCC(C(=O)NCc1ccc(F)cc1)N(CCc1ccccc1)C(=O)c1snc(C(N)=O)c1N (stereo not given) |  |  | 24.4 |

| Structure (SMILES) | AC50 [1] | AC50 [2] | cell number change [%] |
| --- | --- | --- | --- |
| COc1ccc(C)cc1S(=O)(=O)N(C)CC(=O)NCc1ccccn1 |  |  | 1.39 |
| CC(C(=O)c1ccc(-c2ccccc2)cc1)[n+]1cccc(NC(=O)c2ccccc2)c1 (stereo not given) | 29100 nM [falling, single point] |  | -30.3 |
| Cc1cccc(S(=O)(=O)C(C#N)c2nc3ccccc3nc2N2CC(C)OC(C)C2)c1 (stereo not given) | 731 nM [rising, full curve, poor fit] |  |  |
| COc1ccc(OC)c(/C(O)=C/C(=O)C(=O)Nc2ccccc2OC)c1 |  | 92 nM [falling, partial curve, poor fit] | -3.67 |
| CN(CC(=O)Nc1ccc(Cl)cc1)C(=O)c1ccc(-n2cncn2)c([N+](=O)[O-])c1 | 3260 nM [falling, partial curve] | 820 nM [rising, single point] |  |
| N#CCCN(C(=O)COC(=O)c1cccc(S(=O)(=O)Nc2ccc([N+](=O)[O-])cc2)c1)c1ccccc1 |  | 2060 nM [falling, partial curve, poor fit] | -14.6 |
| CCOc1ccc(C(=O)NCC(=O)N2CCC3(CC2)NCCc2[nH]cnc23)cc1 | 29100 nM [rising, single point] | 29100 nM [rising, single point] | 79.2 |
| Cc1ccc(C)c(C(=O)COC(=O)Cn2[nH]c(=O)c3ccccc3c2=O)c1 |  |  | -5.19 |
| CC1CCCCN1C(=S)NCc1ccco1 (stereo not given) | 5.17 nM [falling, full curve, poor fit] |  | -16.5 |
| CCOc1ccc(C2CC(=O)c3c([nH]c(C(=O)OC)c3C)C2)cc1OC (stereo not given) | 461 nM [falling, single point] | 580 nM [rising, full curve] | 6.96 |
| CCN(CC)CCN(C(=O)c1ccc(C(=O)c2ccccc2)cc1)c1nc2c(OC)cccc2s1 |  |  | 9.54 |
| O=C(c1ccc(Br)o1)N1CCN(c2ccccn2)CC1 | 29100 nM [rising, single point] | 29100 nM [rising, single point] | 270 |
| Cc1ccccc1NC(=O)NCCCN1CCN(C2CCCCC2)CC1 |  | 29100 nM [rising, single point] | 12.8 |
| O=C(NCc1csc(-c2cccs2)n1)C1CC1 | 29100 nM [falling, single point] |  | -47.2 |
| O=C(Nc1ccc(Cl)cc1Cl)C1=Cc2ccccc2OC1 |  | 461 nM [rising, full curve, poor fit] | 11.5 |
| CCOc1cc(C2C(C(=O)c3ccco3)=C(O)C(=O)N2CC2CCCO2)ccc1O (stereo not given) |  | 29100 nM [rising, single point] | 23.9 |
| Cc1ccc(S(=O)(=O)N2CCC(C(=O)N3CCC[C@H]3C(=O)NCC(C)C)CC2)cc1 | 580 nM [rising, partial curve] |  |  |
| Cc1ccc(S(=O)(=O)NCC(=O)N(CC(=O)NC2CCCCC2)Cc2ccco2)cc1 | 18400 nM [rising, single point] |  | 215 |
| CCC(C(=O)OCC(=O)c1c(N)n(CC(C)C)c(=O)n(C)c1=O)c1ccccc1 (stereo not given) |  | 3660 nM [falling, full curve] | -15.9 |
| CCOc1ccc(C2C(C(=O)c3ccco3)=C(O)C(=O)N2Cc2cccnc2)cc1OC (stereo not given) |  |  | 1.8 |
| COc1ccc(Br)cc1/C=C(\C(=O)O)c1ccc(S(=O)(=O)N2CCCCC2)s1 |  | 461 nM [falling, full curve, poor fit] | 4.23 |

| Structure (SMILES) | AC50 [1] | AC50 [2] | cell number change [%] |
| --- | --- | --- | --- |
| CC(=O)/C(=C(/O)c1ccccc1)c1nc2ccccc2[nH]1 |  |  | 16 |
| COc1ccc(CC(=O)NCc2n[nH]c(=S)n2-c2ccc(F)cc2)cc1 |  |  | -4.31 |
| O=C(Nc1ccccc1-c1ccccc1)c1ccc(=O)[nH]n1 |  | 651 nM [falling, partial curve, poor fit] |  |
| COc1cc2c(cc1OC)C(C)N(C(=O)c1nccnc1C(=O)O)CC2 (stereo not given) |  | 13 nM [falling, full curve] | -1.06 |
| COc1ccc(OC)c(NC(=O)Cc2coc3cc(C)cc(C)c23)c1 |  | 4610 nM [rising, single point] | -13.3 |
| COc1cc(/C(C)=N/N2CCOCC2)cc(OC)c1OC | 1300 nM [falling, full curve, poor fit] | 651 nM [falling, full curve, poor fit] | -9.77 |
| CC(C)=C(NC(=O)c1ccccc1)C(=O)NC(Cc1ccccc1)C(=O)O (stereo not given) |  | 1300 nM [falling, full curve] |  |
| CC(C)COC(=O)c1ccc(NC(=O)C2C3C=CC(C3)C2C(=O)O)cc1 (stereo not given) |  | 73.1 nM [falling, single point] | -19.6 |
| Cc1cnc(CN2CCc3c([nH]c4ccccc34)C2CC(C)C)[nH]1 (stereo not given) |  | 14600 nM [falling, partial curve] | -17.2 |
| Cc1cc([N+](=O)[O-])nn1Cc1ccccc1F | 731 nM [rising, single point] |  | 0.862 |
| COc1ccc(CC2(CO)CCN(Cc3cccc(OC)c3OC)CC2)cc1 |  | 6510 nM [falling, single point] | 5.78 |
| O=C(CCN1c2ccccc2Sc2ccccc21)Nc1ccccc1 | 29100 nM [rising, single point] |  | 42.1 |
| CCN1CCN(c2ccc(S(=O)(=O)N3CCOCC3)cc2NC(=O)C(C)Oc2ccc(F)cc2)CC1 (stereo not given) | 651 nM [falling, full curve, poor fit] | 4610 nM [falling, single point] | 6.33 |
| Cc1cc(C)c(OCC(=O)OCC(=O)N2CCN(C(=O)c3ccco3)CC2)c(C)c1 |  |  | -14 |
| CC(C(=O)NC1CC1)c1ncc(C(F)(F)F)cc1Cl (stereo not given) |  |  | -16 |
| Cc1cc(F)ccc1S(=O)(=O)N1CCCOC1CNC(=O)C(=O)NC1CCCCC1 (stereo not given) |  | 6510 nM [rising, single point] | -9.45 |
| Cc1cccn2c(=O)c(C=O)c(N3CCCCC3)nc12 |  | 25900 nM [rising, partial curve] | 6.89 |
| CCCC(CCC(=O)Nc1cc([N+](=O)[O-])ccc1O)C(=O)O (stereo not given) |  |  | -61.2 |
| COc1ccc(CC(=O)c2ccc(O)cc2O)cc1 |  |  | 6.79 |
| O=C(/C=C/NNC(=O)c1ccccc1)c1ccc(Br)cc1 | 731 nM [rising, single point] |  | -10.5 |
| COC(CNC(=O)c1ccc(-n2c(=S)[nH]c3ccccc3c2=O)cc1)OC | 29100 nM [falling, single point] |  | -86.8 |

As entered above:
Value for Cc1ccccc1NC(=O)NCCCN1CCN(C2CCCCC2)CC1 under cell number change [%]: 12.8
Value for O=C(CCc1nc2ccccc2c(=O)[nH]1)N1CCN(S(=O)(=O)c2ccc(F)cc2)CC1 under cell number change [%]: -13
Value for CCCCCCC(=O)N(O)C1CC(=O)N(c2ccccc2)C1=O (stereo not given) under cell number change [%]: -93.5
Value for Cc1cccn2c(=O)c(C=O)c(N3CCCCC3)nc12 under cell number change [%]: 6.89
Value for O=C(NCCc1ccccc1)C1CCCN(c2ncnc3c2nc2n3CCCCC2)C1 (stereo not given) under cell number change [%]: -11.1
